In PubChem BioAssay AID2685 (National Center for Advancing Translational Sciences (NCATS), 2010):
This is one part of the list. The main result of the screen is listed elsewhere. These columns were measured beside it and carry no call. The list favours compounds with an active or inconclusive main result. Potencies come from curve fits of mixed quality, noted in brackets.

Assay: qHTS Assay for Lipid Storage Modulators in Drosophila S3 Cells;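 on cell number change: cells counted by Cell Tracker Red CMTPX staining in the red channel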
Conditions: BODIPY lipid droplet fluorescence, 18-24 h; for cell number change: measured here: cell count max response, cells fed with added oleic acid
Method in brief: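 Drosophila S3 cells got compounds at several concentrations plus oleic acid (400 uM solution). Laser-scanning cytometry with 488 nm excitation read lipid droplets at 500-530 nm and cells at 575-640 nm. Percent activity was relative to 20 uM Triacsin C.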

[1] = measured here: lipid fluorescence (Fed channel) AC50, cells fed with added oleic acid
[2] = measured here: cell number channel AC50, cells fed with added oleic acid

| Structure (SMILES) | cell number change [%] | AC50 [1] | AC50 [2] |
| --- | --- | --- | --- |
| Cc1ccc(CNC(=O)C2CCCN2C(=O)Nc2ccccc2)cc1 (centres undefined) | -6.82 | 29.1 µM [rising, single point] | – |
| CC1(C)N=C(N)N=C(N)N1c1ccccc1 | -50.6 | 0.13 µM [falling, full curve, poor fit] | 0.366 µM [falling, full curve] |
| Cc1noc(C)c1CSc1nnc2cc(C)c3ccccc3n12 | 1.52 | 2.06 µM [rising, single point] | – |
| COc1ccc(S(=O)(=O)N2CCN(CCOc3ccc(Br)cc3)CC2)cc1OC | -34.1 | 0.00461 µM [falling, full curve, poor fit] | 0.116 µM [falling, full curve, poor fit] |
| Cc1nccn1S(=O)(=O)c1cc([N+](=O)[O-])ccc1Cl | 7.33 | 29.1 µM [falling, single point] | 0.517 µM [rising, full curve] |
| O=C(NCCc1ccccc1)C(c1ccccc1F)N(C(=O)c1csnn1)C1CC1 (centres undefined) | 18.3 | 29.1 µM [rising, single point] | – |
| NC(=O)CSc1nnc(-c2cccnc2)n1CCc1ccccc1 | 30.3 | 32.6 µM [rising, single point] | 16.4 µM [rising, single point] |
| O=C1ON=C(c2ccccc2)/C1=C/c1ccc(OS(=O)(=O)c2ccccc2)cc1 | – | – | 6.51 µM [rising, single point] |
| CN1CCN(CC(O)(c2ccc(Cl)cc2)c2ccc(Cl)cc2)CC1 | -20.3 | 6.51 µM [falling, partial curve, poor fit] | 0.0411 µM [falling, partial curve, poor fit] |
| COc1ccccc1OCCCOc1ccc(C)cc1Br | 32 | 14.6 µM [rising, partial curve] | 9.2 µM [rising, single point] |
| CCn1c(SCC(=O)Nc2nncs2)nnc1-c1ccco1 | -22.9 | – | – |
| NC(=O)c1c(NC(=O)c2ccccc2C(=O)O)sc2c1CCCC2 | 22.6 | 25.9 µM [rising, single point] | – |
| CC1(C)Cc2ccccc2C(/C(=N\Nc2cccc(Cl)c2)C(N)=O)=N1 | -49 | 16.4 µM [falling, partial curve] | 18.4 µM [falling, single point] |
| Cc1cc(CN2CCN(CC(=O)Nc3cc(Cl)ccc3-n3cncn3)CC2)no1 | 38.3 | 4.61 µM [rising, partial curve] | 29.1 µM [rising, single point] |
| COc1ccc(S(=O)(=O)N2CCC(n3cnc4cc(C(F)(F)F)ccc43)CC2)cc1 | -39.9 | 23.1 µM [falling, single point] | 18.4 µM [falling, partial curve] |
| Cc1onc(-c2c(F)cccc2Cl)c1C(=O)NC(C)c1ccccc1 (centres undefined) | – | – | 6.51 µM [rising, single point] |
| CC(C)CC(=O)NC(=S)Nc1ccccc1F | -10.2 | 0.58 µM [rising, single point] | – |

| Structure (SMILES) | cell number change [%] | AC50 [1] | AC50 [2] |
| --- | --- | --- | --- |
| O=C(NC(=S)NC1CCCCC1)c1ccccc1[N+](=O)[O-] | -38.3 | 32.6 µM [falling, single point] | 29.1 µM [falling, single point] |
| CCOC(=O)c1ccc(NC(=O)Cn2c(-c3nonc3N)nc3ccccc32)cc1 | -0.361 | 29.1 µM [falling, single point] | – |
| CCOCCCNC(=O)Cn1cnc2c(cnn2-c2ccc(OC)cc2)c1=O | 11.6 | 0.92 µM [falling, full curve, poor fit] | – |
| CC1CCc2[nH]nc(C(=O)O)c2C1 (centres undefined) | 0.521 | 0.731 µM [falling, full curve] | – |
| O=C(Cn1cnc2ccccc2c1=O)OCCCCN1C(=O)c2ccccc2C1=O | -24.5 | 0.184 µM [rising, full curve, poor fit] | – |
| Nc1c(C(=O)NCCN2CCOCC2)c2nc3ccccc3nc2n1-c1ccc2c(c1)OCO2 | 155 | 29.1 µM [rising, partial curve, poor fit] | 29.1 µM [rising, partial curve, poor fit] |
| COc1ccc(OC)c(NC(=O)CSc2nc3n[nH]c(C)c3c(=N)n2-c2cccc(Cl)c2C)c1 | -18 | 6.51 µM [rising, single point] | – |
| Cc1ccc(C)c(-n2c(SCC(=O)O)nc3sc4c(c3c2=O)CCCC4)c1 | – | 0.13 µM [falling, full curve, poor fit] | – |
| CN(CC(=O)Nc1cccc(F)c1)C(=O)c1ccccc1CCc1ccccc1 | -31.3 | 16.4 µM [falling, single point] | 20.6 µM [falling, single point] |
| COc1ccc(/C=N/NC(=O)c2nn(-c3ccc(C)c(C)c3)c(=O)c3ccccc23)cc1 | 55.8 | 4.61 µM [rising, full curve] | 2.91 µM [rising, full curve] |
| Cc1c(Cl)cccc1NC(=O)c1cccc(NC(=O)CCC(=O)O)c1 | – | 0.259 µM [rising, full curve] | 0.366 µM [rising, full curve, poor fit] |
| CC(C)NC(=O)c1cc(-c2ccc(Br)cc2)on1 | – | 4.61 µM [rising, single point] | – |
| CCCN(Cc1cc2cc(OC)ccc2[nH]c1=O)C(=O)c1ccco1 | -18 | 0.13 µM [falling, full curve, poor fit] | 0.116 µM [falling, full curve, poor fit] |
| CCOCCCNC(=O)CN1C(=O)CSc2cc(S(=O)(=O)N3CCCCCC3)ccc21 | -21.3 | – | – |
| S=c1[nH]nc(-c2cccc(Cl)c2)n1/N=C/c1ccco1 | 11.7 | – | – |
| CN(C)CCCNC(=S)N(CCO)Cc1cc2cc3c(cc2[nH]c1=O)OCO3 | 17.3 | 10.3 µM [rising, partial curve, poor fit] | – |
| C=CCOc1cccc(C2C(C(=O)c3ccco3)=C(O)C(=O)N2CCN(CC)CC)c1 (centres undefined) | -1.66 | – | – |

Structural class: the compounds so far with a nitro group on carbon (2)

| Structure (SMILES) | cell number change [%] | AC50 [1] | AC50 [2] |
| --- | --- | --- | --- |
| Cc1nccn1S(=O)(=O)c1cc([N+](=O)[O-])ccc1Cl | 7.33 | 29.1 µM [falling, single point] | 0.517 µM [rising, full curve] |
| O=C(NC(=S)NC1CCCCC1)c1ccccc1[N+](=O)[O-] | -38.3 | 32.6 µM [falling, single point] | 29.1 µM [falling, single point] |
